Experimental data as given in patent US20210163552A1, “PEPTIDE FOR INDUCING REGENERATION OF TISSUE, AND USE THEREOF” (SHIONOGI & CO., LTD., priority 2017, published 2021).
At least one peptide structure holds a part that was inferred or is arguable (an end, a ring closure or a residue). Where no end group is shown, it is not given here.

Tests used:
[1] = test system: murine bone marrow-derived stromal cell line ST2; assay: Measurements of cell-migration activity (Example 5); format: cell-based; details: peptide at 20 μM, 20 hours of culture (FIG. 2)
[2] = test system: murine bone marrow-derived stromal cell line ST2; assay: Measurements of cell-migration activity (Example 2); format: cell-based; parameters: key: five levels of scores (−, ±, +, ++, +++); five levels of scores (−, ±, +, ++, +++); five levels of scores (−, ±, +, ++, +++); five levels of scores (−, ±, +, ++, +++); five levels of scores (−, ±, +, ++, +++); details: ST2 cells, peptide at 10 μM, cultured overnight, score from photographed images
Method: Cells of murine bone marrow-derived stromal cell line ST2 (RCB0224, RIKEN BioResource Research Center) were removed from a dish using TrypLE Express (Thermo Fisher Scientific), and collected by centrifugation at 25° C. and 1,500 rpm for 5 minutes. The cell pellets were prepared into a concentration of 7×10^5 cells/mL with RPMI 1640/10% FBS/1% PenStrep (Gibco), and seeded at 70 μL/insert well on a 24-well plate set with a culture insert (Nippon Genetics Co., Ltd.). After 24 hours, the culture insert was taken out, and the cells were washed once with RPMI 1640. Each of the peptide samples (a peptide of position 2 to position 44 of human HMGB1 (2-44), and the five kinds of modified peptides Peptide-1 to -5 prepared in Example 1), each prepared at 10 μM with an assay medium (RPMI 1640/0.1% FBS) was added in an amount of 550 μL, and the cells were further cultured overnight. As a negative control (NC), only the assay medium was added. After the culture, the cells were fixed, stained with DiffQuik, and photographed. The degree of cell migration of each group from the photographed images was evaluated with five levels of scores (−, ±, +, ++, +++). In addition, each of the peptide samples was subjected to three test runs under the same conditions.

Sequence: GKGDPKKPRGKMSSYAFFVQTCREEHKKKHPDASVNFSEFSPP [Peptide-6, GKGDPKKPR GKMSSYAFFVQTCREEHKKKHPDASVNFSEFSPP]
- migration activity (proportion of blank region area occupied by migrated cells) [1]: same level of migration activity as the peptide at position 2 to position 44 of human HMGB1 (2-44)

Sequence: GKGDPKKPRGKMSSYAFFVQTCREEHKKKHPDASVNFSEFSKK [Peptide 2-44, GKGDPKKPR GKMSSYAFFVQTCREEHKKKHPDASVNFSEFSKK, reference compound]
- degree of cell migration, 1st Run [2]: +++
- degree of cell migration, 2nd Run [2]: +++
- degree of cell migration, 3rd Run [2]: +++

Sequence: MGKGDPKKPRGKMSSYAFFVQTCREEHKKKHPDASVNFSEFSPP [Peptide-3, MGKGDPKKPRGKMSSYAFFVQTCREEHKKKHPDASVNFSEFSPP]
- degree of cell migration, 1st Run [2]: +
- degree of cell migration, 2nd Run [2]: +
- degree of cell migration, 3rd Run [2]: +
